Experimental data taken from PMC4624725.
Where a chain is given by its changes, count along the chain named. Names may count otherwise. These are yes or no findings as the source states them, for the method shown. In cells and extracts the contact can be indirect. Some binding calls cover weakened binding; strength is not graded here. Values belong to the binder of their own block, whether it stands above or below them.

Protein sequences, listed by entry. Tags and fused reporters are not part of them. Lines headed by an entry give the natural chain unless they say otherwise; changes in a name come on top. Chains listed by the source or under a name are the forms on record and can include a tag or linker.
Flag-Sox11 Δ117–214 (P0C1G9, form named): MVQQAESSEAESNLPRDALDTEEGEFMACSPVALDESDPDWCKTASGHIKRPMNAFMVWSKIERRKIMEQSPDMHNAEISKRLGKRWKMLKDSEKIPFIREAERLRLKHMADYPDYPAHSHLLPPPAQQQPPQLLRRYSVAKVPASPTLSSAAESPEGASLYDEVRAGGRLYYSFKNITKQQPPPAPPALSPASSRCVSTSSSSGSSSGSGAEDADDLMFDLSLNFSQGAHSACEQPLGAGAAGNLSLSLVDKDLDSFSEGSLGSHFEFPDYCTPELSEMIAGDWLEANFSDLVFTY

Target: Flag-Sox11 Δ117–214 (rat) (UniProt P0C1G9)
Test: co-IP; HEK 293FT lysates (NP-40 buffer); flag-sox11 deletion mutants immunoprecipitated with anti-flag on Dynabeads, caspase-6 detected with anti-caspase-6

binding: binds
B1: caspase-6 C163A (full length, in HEK 293FT cells) (enzyme, UniProt P55212 1-293)
chain: MSSASGLRRGHPAGGEENMTETDAFYKREMFDPAEKYKMDHRRRGIALIFNHERFFWHLTLPERRGTCADRDNLTRRFSDLGFEVKCFNDLKAEELLLKIHEVSTVSHADADCFVCVFLSHGEGNHIYAYDAKIEIQTLTGLFKGDKCHSLVGKPKIFIIQAARGNQHDVPVIPLDVVDNQTEKLDTNITEVDAASVYTLPAGADFLMCYSVAEGYYSHRETVNGSWYIQDLCEMLGKYGSSLEFTELLTLVNRKVSQRRVDFCKDPSAIGKKQVPCFASMLTKKLHFFPKSN

binding: binds
B2: procaspase-6 (wild type, full length caspase-6) (enzyme, UniProt P55212 1-293)
chain: B1 chain with A163C
